According to patent US7812170B2, “Insecticides” (Syngenta Crop Protection, Inc., priority 2004, dated 2010):
Some results were stated once for a whole list of compounds, not compound by compound.

Tested on: Heliothis virescens eggs
Test: Activity against Heliothis virescens (application to eggs)
Assay type: in vivo
Conditions: 400 ppm active ingredient, eggs on cotton sprayed, after 8 days

Row | SMILES | percentage hatching rate of the eggs and survival rate of the caterpillars (% activity)
1 | CC(C)NC(=O)c1cc2ccccc2c(Cl)c1NC(=O)c1cc(C(F)(F)F)nn1-c1ncccc1Cl [Compound T1.3] | over 80%
2 | CC(C)NC(=O)c1cc2cc(Br)ccc2c(Br)c1NC(=O)c1cc(C(F)(F)F)nn1-c1ncccc1Cl [Compound T9.3] | over 80%
3 | CC(C)NC(=O)c1cc2ccccc2c(Br)c1NC(=O)c1cc(C(F)(F)F)nn1-c1ncccc1Cl [Compound T7.3] | over 80%
4 | CCNC(=O)c1cc2cc(Br)ccc2c(Cl)c1NC(=O)c1cc(C(F)(F)F)nn1-c1ncccc1Cl [Compound T2.2] | over 80%
5 | CNC(=O)c1cc2ccccc2c(Br)c1NC(=O)c1cc(C(F)(F)F)nn1-c1ncccc1Cl [Compound T7.1] | over 80%
6 | CCNC(=O)c1cc2cc(Br)ccc2c(Br)c1NC(=O)c1cc(C(F)(F)F)nn1-c1ncccc1Cl [Compound T9.2] | over 80%
7 | CC(C)NC(=O)c1cc2cc(C#N)ccc2c(Cl)c1NC(=O)c1cc(C(F)(F)F)nn1-c1ncccc1Cl [Compound T5.3] | over 80%
8 | CNC(=O)c1cc2ccccc2c(Cl)c1NC(=O)c1cc(C(F)(F)F)nn1-c1ncccc1Cl [Compound T1.1] | over 80%
9 | CNC(=O)c1cc2ccccc2c(C)c1NC(=O)c1cc(C(F)(F)F)nn1-c1ncccc1Cl [Compound T8.1] | over 80%
10 | CNC(=O)c1cc2cc(Cl)ccc2c(Cl)c1NC(=O)c1cc(C(F)(F)F)nn1-c1ncccc1Cl [Compound T20.1] | over 80%
11 | CNC(=O)c1cc2cc(C#N)ccc2c(Cl)c1NC(=O)c1cc(C(F)(F)F)nn1-c1ncccc1Cl [Compound T5.1] | over 80%
12 | CC(C)NC(=O)c1cc2cc(Cl)ccc2c(Cl)c1NC(=O)c1cc(C(F)(F)F)nn1-c1ncccc1Cl [Compound T20.3] | over 80%
13 | CNC(=O)c1cc2cc(Br)ccc2c(Cl)c1NC(=O)c1cc(C(F)(F)F)nn1-c1ncccc1Cl [Compound T2.1] | over 80%
14 | CNC(=O)c1cc2c([N+](=O)[O-])cccc2c(Cl)c1NC(=O)c1cc(C(F)(F)F)nn1-c1ncccc1Cl [Compound T76.1] | over 80%
15 | CNC(=O)c1cc2cc(Br)ccc2c(Br)c1NC(=O)c1cc(C(F)(F)F)nn1-c1ncccc1Cl [Compound T9.1] | over 80%
16 | CC(C)NC(=O)c1cc2c([N+](=O)[O-])cccc2c(Cl)c1NC(=O)c1cc(C(F)(F)F)nn1-c1ncccc1Cl [Compound T76.3] | over 80%
